Data published in the supplement of paper PMC4683952.
Counter-ions that a name gives are not always drawn. Screen size: about 1,200 compounds; about 50 (4%) showed activity. No stated cut-off is given here; in the data, all actives reach 1.3 or more but so do some inactives. The list shows a part of the results.

Test system: Lgr5 (MarsCy1-Lgr5-EGFP, U2OS)
Assay: cell-surface Lgr5 expression (SCi1 fluorescence, background-subtracted) relative to WT DMSO (fold of DMSO control); higher = more Lgr5 at the plasma membrane, active = hit call of the paper
Conditions: U2OS MarsCy1-Lgr5-EGFP stable; treatment time: overnight; 16 µM; library: Johns Hopkins Clinical Compound Library

| Compound | cell-surface Lgr5 expression |
| --- | --- |
| COc1ccc2[nH]c(I)c(CCNC(C)=O)c2c1 [2-Iodomelatonin] | inactive: 0.912 |
| C[C@@H]1[C@H](O)[C@@H](C)/C=C/C=C/C=C/C=C/C=C/C=C/C=C/[C@H](O[C@@H]2O[C@H](C)[C@@H](O)[C@H](N)[C@@H]2O)C[C@@H]2O[C@](O)(C[C@@H](O)C[C@@H](O)[C@H](O)CC[C@@H](O)C[C@@H](O)CC(=O)O[C@H]1C)C[C@H](O)[C@H]2C(=O)O [Amphotericin B] | inactive: 0.802 |
| CCOC(=O)C(C)(C)Oc1ccc(Cl)cc1 [Clofibrate (2-2-methyl-propionic acid ethyl ester)] | inactive: 0.922 |
| CCC(NC(C)C)C(O)c1ccc(O)c(O)c1 (configuration not stated) [Isoetharine mesylate] | inactive: 1.19 |
| CCC(Cc1c(I)cc(I)c(N)c1I)C(=O)O (configuration not stated) [Iopanoic acid] | inactive: 1.18 |
| [Ca+2].[OH-].[OH-] [Calcium hydroxide] | inactive: 1.1 |
| CC(=O)[O-].CC(=O)[O-].CC(=O)[O-].[Sm+3] [Samarium(III) acetate hydrate] | inactive: 1.17 |
| CC1CCc2c(N3CCC(O)CC3)c(F)cc3c(=O)c(C(=O)O)cn1c23 (configuration not stated) [Nadifloxacin] | inactive: 0.884 |
| [Cl-].[Cl-].[Zn+2] [Zinc chloride] | inactive: 0.72 |
| Clc1ccc(COC(Cn2ccnc2)c2ccc(Cl)cc2Cl)c(Cl)c1 (configuration not stated) [Miconazole] | inactive: 0.826 |
| NC12CC3CC(CC(C3)C1)C2 [Amantadine hydrochloride (1-Adamantanamine hydrochloride)] | inactive: 0.924 |
| NC12CC3CC(CC(C3)C1)C2 [Amantadine] | inactive: 1.16 |
| O.O.O.O.O.O.O.O=S(=O)([O-])[O-].O=S(=O)([O-])[O-].O=S(=O)([O-])[O-].[Fe+3].[Fe+3] [Ferric sulfate heptahydrate] | inactive: 0.861 |
| COC(=O)c1ccc(O)c2nc3c(C=O)c(O)cc(O)c3nc12 [Lomofungin] | inactive: 0.884 |
| COc1ccc(C(=O)NCc2ccc(OCCN(C)C)cc2)cc1OC [Itopride HCl] | inactive: 0.884 |
| N.O=C(O)CC(O)(CC(=O)O)C(=O)O.[Fe+3] [Ferric ammonium citrate] | inactive: 1.06 |
| CC[C@@H]1/C=C(\C)C[C@H](C)C[C@H](OC)[C@H]2O[C@@](O)(C(=O)C(=O)N3CCCC[C@H]3C(=O)O[C@H](/C(C)=C/[C@@H]3CC[C@H](Cl)[C@H](OC)C3)[C@H](C)[C@@H](O)CC1=O)[C@H](C)C[C@@H]2OC [Pimecrolimus] | inactive: 0.952 |
| CCCCCCCCCCCCCCc1ccc(S(=O)(=O)O)cc1.OCl [Oxychlorosene] | inactive: 0.635 |
| Brc1c(NC2=NCCN2)ccc2nccnc12 [Brimonidine (UK 14,304)] | inactive: 0.449 |
| CN(C)CCOC(=O)COc1ccc(Cl)cc1 [Meclofenoxate (Centrophenoxine hydrochloride)] | inactive: 1.04 |
| CC(=O)[O-].CC(=O)[O-].[Mg+2] [Magnesium acetate] | inactive: 0.917 |

| Compound | cell-surface Lgr5 expression |
| --- | --- |
| Cc1ccc2c(Cl)cc(Cl)c(O)c2n1 [Chlorquinaldol (5,7-Dichloro-2-methyl-8-quinolinol)] | inactive: 0.931 |
| N=C(N)N/N=C/c1c(Cl)cccc1Cl [Guanabenz acetate] | inactive: 1.19 |
| COc1ccc(C[C@@H]2c3cc(OC)c(OC)cc3CC[N@+]2(C)CCC(=O)OCCCCCOC(=O)CC[N@@+]2(C)CCc3cc(OC)c(OC)cc3[C@H]2Cc2ccc(OC)c(OC)c2)cc1OC [Cisatracurium besylate] | inactive: 0.966 |
| OCCOCCN1CCN(C(c2ccccc2)c2ccc(Cl)cc2)CC1 (configuration not stated) [Hydroxyzine (Dihydrochloride)] | inactive: 0.654 |
| OCCOCCN1CCN(C(c2ccccc2)c2ccc(Cl)cc2)CC1 (configuration not stated) [Hydroxyzine] | inactive: 0.988 |
| C=CC1=C(C(=O)O)N2C(=O)[C@@H](NC(=O)/C(=N\OCC(=O)O)c3csc(N)n3)[C@H]2SC1 [Cefixime] | inactive: 0.726 |
| Cc1cc(-n2c(=O)[nH]c(=O)n(C)c2=O)ccc1Oc1ccc(SC(F)(F)F)cc1 [Toltrazuril] | inactive: 1.07 |
| CC(C)COC(=O)c1ccc(N)cc1 [Isobutamben (Isobutyl 4-aminobenzoate)] | inactive: 0.922 |
| O=C1N(c2ccccc2)c2ccccc2C1(Cc1ccncc1)Cc1ccncc1 [Linopirdine] | inactive: 0.871 |
| [I-].[K+] [Potassium iodide] | inactive: 1.02 |
| COc1ccc2[nH]c([S+]([O-])Cc3ncc(C)c(OC)c3C)nc2c1 (configuration not stated) [Omeprazole] | inactive: 1.01 |
| CC(=O)Nc1ccc(O)cc1 [Acetaminophen] | inactive: 1.24 |
| CO/N=C(\C(=O)N[C@@H]1C(=O)N2C(C(=O)O)=C(C[N+]3(C)CCCC3)CS[C@H]12)c1csc(N)n1 [Cefepime hydrochloride] | inactive: 0.86 |
| C=COCC [Ethyl vinyl ether] | inactive: 1.1 |
| CC(Oc1c(Cl)cccc1Cl)C1=NCCN1 (configuration not stated) [Lofexidine] | inactive: 1 |
| CCc1cccc2c3c([nH]c12)C(CC)(CC(=O)O)OCC3 (configuration not stated) [Etodolac] | inactive: 1.15 |
| Cc1noc(NS(=O)(=O)c2ccc(N)cc2)c1C [Sulfisoxazole] | inactive: 1.03 |
| CC[N+](CC)(CC)CCC(O)(c1ccccc1)C1CCCCC1 (configuration not stated) [Tridihexethyl chloride] | inactive: 1.12 |
| OC[C@H]1O[C@@H](O[C@H]2[C@H](O)[C@@H](O)[C@@H](O)O[C@@H]2CO)[C@H](O)[C@@H](O)[C@H]1O [alpha-D-Lactose monohydrate] | inactive: 0.93 |
| CC1(C)S[C@@H]2[C@H](NC(=O)[C@H](NC(=O)N3CCN(S(C)(=O)=O)C3=O)c3ccccc3)C(=O)N2[C@H]1C(=O)O [Mezlocillin sodium] | inactive: 1.11 |
| CCCCCCCN(CC)CCCC(O)c1ccc(NS(C)(=O)=O)cc1 (configuration not stated) [Ibutilide fumarate] | inactive: 1.06 |

Three consecutive records already listed:

| Compound | cell-surface Lgr5 expression |
| --- | --- |
| CC(=O)Nc1ccc(O)cc1 [Acetaminophen] | inactive: 1.24 |
| CO/N=C(\C(=O)N[C@@H]1C(=O)N2C(C(=O)O)=C(C[N+]3(C)CCCC3)CS[C@H]12)c1csc(N)n1 [Cefepime hydrochloride] | inactive: 0.86 |
| C=COCC [Ethyl vinyl ether] | inactive: 1.1 |
